Laboratory results taken from patent US9044520B2 (Nihon Medi-Physics Co., Ltd., priority 2011, dated 2015).

Assay: general procedure: Fmoc solid-phase peptide synthesis; Fmoc-SAL resin (0.65 mol/g); HBTu/HOBt; DIC-HOOBt for formyl-Nle
Conditions: whole synthesis, 220 nm, scale of the general procedure 0.32 mmol

Row | Substance | final HPLC purity (TFA salt) [%] | final HPLC purity (trifluoroacetate) [%]
1 | formyl-Met-Leu-Phe-Nle-Tyr-DLys-ε([^19F]FB)-NH2 | 99.5 | –
2 | formyl-Nle-Leu-Phe-Nle-Tyr-DLys-DLys-DLys-DLys-ε([^19F]FB)-DLys-NH2 | – | 99.8
3 | formyl-Nle-Leu-Phe-Nle-Tyr-DLys-DLys-DLys-ε([^19F]FB)-NH2 | – | 99.3
4 | formyl-Nle-Leu-Phe-Nle-Tyr-DLys-ε([^19F]FB)-NH2 | – | 95.2
